This is a selection; strong and weak results do not stand in their true shares. Small differences around the control level are noise.
The targets below were run with Nc1ncnc2c1ncn2[C@@H]1O[C@H](COP(=O)(O)OP(=O)(O)OP(=O)(O)O)[C@@H](O)[C@H]1O [adenosine 5'-triphosphate] (assay: log2 fold change of tryptic peptide abundance, ligand vs vehicle (limited proteolysis) (log2 ratio); higher = more trypsin-susceptible (destabilized)). Conditions: ligand concentration: 5 mM; sample: E. coli desalted lysate; replicate design: treated before aliquoting.
Method: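 HT-PELSA: desalted E. coli K-12 BW25113 lysate (with 12 mM MgCl2) incubated with 5 mM ATP (pH 7) or water for 30 min at 25 C, then a 4 min trypsin pulse at 22 C. Peptides were quantified by DIA-MS (4 replicates). Value is the peptide log2 fold change (treated/control); negative = stabilized. Scale: negative = ligand-stabilized region.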
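Further: lysate desalted by size exclusion to strip endogenous ATP, peptide intensities built from DIA-NN precursor signals, and peptides missing any value discarded before comparison.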

By UniProt entry, the sequences of proteins in these tests, tags left out. Where a name states a change or a piece, a line headed by the entry shows the natural chain unless it says otherwise.
UniProt P77357: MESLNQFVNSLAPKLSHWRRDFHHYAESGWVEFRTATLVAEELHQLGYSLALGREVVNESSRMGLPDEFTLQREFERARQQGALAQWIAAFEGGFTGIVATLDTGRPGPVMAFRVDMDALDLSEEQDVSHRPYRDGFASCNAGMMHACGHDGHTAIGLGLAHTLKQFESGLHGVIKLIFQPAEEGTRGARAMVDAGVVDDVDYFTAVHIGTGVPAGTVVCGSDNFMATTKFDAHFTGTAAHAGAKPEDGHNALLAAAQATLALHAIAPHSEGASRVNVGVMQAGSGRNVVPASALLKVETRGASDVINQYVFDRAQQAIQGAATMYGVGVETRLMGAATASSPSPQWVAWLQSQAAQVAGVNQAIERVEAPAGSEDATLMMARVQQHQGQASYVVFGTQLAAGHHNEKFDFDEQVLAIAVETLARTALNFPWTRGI
UniProt Q46888: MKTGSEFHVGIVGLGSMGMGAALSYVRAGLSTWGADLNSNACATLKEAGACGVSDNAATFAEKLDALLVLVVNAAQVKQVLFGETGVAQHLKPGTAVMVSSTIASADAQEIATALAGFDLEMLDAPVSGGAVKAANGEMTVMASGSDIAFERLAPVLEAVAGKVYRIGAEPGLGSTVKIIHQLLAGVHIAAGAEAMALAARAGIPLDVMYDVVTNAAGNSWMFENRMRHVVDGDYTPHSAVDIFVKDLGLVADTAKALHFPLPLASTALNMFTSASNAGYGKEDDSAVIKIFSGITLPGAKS
UniProt P77445: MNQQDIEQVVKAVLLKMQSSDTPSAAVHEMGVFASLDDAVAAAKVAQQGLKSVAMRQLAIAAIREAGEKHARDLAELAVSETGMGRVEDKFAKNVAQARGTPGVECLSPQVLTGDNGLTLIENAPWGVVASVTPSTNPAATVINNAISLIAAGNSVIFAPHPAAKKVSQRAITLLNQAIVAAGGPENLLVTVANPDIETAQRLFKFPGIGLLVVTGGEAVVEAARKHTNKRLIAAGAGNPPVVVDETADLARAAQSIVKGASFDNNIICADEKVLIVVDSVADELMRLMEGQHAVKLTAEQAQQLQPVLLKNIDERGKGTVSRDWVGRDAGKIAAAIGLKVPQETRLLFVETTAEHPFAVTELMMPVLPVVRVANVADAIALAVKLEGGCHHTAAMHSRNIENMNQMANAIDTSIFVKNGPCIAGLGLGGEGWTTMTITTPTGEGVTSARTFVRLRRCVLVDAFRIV
UniProt Q46904: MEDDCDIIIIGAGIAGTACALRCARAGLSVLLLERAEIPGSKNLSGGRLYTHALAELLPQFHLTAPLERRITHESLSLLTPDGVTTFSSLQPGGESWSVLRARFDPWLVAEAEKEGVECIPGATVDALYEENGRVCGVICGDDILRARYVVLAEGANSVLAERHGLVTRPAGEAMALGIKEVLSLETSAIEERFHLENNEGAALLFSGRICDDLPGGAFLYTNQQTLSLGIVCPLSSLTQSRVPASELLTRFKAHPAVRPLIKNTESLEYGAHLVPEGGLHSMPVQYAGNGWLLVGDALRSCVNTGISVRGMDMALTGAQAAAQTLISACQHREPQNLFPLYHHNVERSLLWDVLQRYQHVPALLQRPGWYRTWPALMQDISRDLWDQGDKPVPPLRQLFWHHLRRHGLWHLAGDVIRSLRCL
UniProt P77529: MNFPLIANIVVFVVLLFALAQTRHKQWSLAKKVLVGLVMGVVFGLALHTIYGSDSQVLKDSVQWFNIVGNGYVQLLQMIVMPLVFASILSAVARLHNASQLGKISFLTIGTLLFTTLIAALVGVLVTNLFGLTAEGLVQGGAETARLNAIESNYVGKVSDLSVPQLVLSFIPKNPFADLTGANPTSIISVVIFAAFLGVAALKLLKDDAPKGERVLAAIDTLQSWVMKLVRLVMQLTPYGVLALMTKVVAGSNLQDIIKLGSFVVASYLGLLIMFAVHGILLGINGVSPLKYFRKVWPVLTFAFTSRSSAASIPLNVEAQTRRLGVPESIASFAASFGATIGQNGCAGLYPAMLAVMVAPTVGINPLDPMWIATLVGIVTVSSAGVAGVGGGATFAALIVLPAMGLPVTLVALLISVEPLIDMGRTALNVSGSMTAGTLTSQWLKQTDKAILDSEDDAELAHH
UniProt Q46896: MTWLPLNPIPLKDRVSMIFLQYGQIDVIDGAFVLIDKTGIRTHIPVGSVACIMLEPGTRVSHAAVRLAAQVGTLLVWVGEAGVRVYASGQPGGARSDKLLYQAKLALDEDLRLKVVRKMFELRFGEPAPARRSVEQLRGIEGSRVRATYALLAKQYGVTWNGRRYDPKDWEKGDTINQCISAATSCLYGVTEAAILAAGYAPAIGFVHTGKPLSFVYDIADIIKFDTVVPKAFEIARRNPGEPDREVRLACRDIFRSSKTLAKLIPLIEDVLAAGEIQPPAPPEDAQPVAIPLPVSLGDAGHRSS
UniProt P77569: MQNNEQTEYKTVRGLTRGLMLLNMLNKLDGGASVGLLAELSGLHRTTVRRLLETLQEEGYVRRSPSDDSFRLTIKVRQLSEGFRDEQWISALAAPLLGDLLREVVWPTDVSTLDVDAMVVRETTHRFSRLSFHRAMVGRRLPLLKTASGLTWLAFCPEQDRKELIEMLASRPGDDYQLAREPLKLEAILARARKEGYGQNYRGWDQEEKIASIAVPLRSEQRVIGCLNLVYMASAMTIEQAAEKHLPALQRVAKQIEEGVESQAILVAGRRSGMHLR
UniProt P77726: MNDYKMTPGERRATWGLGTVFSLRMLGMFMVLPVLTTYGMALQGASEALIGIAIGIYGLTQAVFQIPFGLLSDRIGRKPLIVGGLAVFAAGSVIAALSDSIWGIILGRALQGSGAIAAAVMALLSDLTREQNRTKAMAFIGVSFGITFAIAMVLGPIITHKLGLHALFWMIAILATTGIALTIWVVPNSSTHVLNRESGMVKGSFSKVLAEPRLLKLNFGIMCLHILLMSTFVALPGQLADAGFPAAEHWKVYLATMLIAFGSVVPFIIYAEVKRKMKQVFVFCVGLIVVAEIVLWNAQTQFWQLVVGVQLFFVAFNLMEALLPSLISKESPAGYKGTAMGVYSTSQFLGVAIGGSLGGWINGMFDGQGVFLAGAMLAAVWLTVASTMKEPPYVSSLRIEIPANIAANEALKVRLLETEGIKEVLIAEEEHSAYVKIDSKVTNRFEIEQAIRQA
UniProt P77609: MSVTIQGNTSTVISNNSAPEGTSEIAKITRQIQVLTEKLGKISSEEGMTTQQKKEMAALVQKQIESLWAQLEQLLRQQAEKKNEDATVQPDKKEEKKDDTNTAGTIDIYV
UniProt Q2M7X4: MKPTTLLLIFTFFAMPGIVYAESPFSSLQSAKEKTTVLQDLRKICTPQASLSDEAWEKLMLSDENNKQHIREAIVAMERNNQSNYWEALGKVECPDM
UniProt P77626: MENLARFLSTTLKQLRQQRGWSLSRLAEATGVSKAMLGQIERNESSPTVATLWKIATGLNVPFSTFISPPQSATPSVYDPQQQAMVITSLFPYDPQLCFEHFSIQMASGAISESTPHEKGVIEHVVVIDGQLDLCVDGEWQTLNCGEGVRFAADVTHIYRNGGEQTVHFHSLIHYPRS
UniProt Q46865: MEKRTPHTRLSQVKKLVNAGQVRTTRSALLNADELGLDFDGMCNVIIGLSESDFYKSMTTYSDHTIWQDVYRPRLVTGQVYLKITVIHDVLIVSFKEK
UniProt Q46814: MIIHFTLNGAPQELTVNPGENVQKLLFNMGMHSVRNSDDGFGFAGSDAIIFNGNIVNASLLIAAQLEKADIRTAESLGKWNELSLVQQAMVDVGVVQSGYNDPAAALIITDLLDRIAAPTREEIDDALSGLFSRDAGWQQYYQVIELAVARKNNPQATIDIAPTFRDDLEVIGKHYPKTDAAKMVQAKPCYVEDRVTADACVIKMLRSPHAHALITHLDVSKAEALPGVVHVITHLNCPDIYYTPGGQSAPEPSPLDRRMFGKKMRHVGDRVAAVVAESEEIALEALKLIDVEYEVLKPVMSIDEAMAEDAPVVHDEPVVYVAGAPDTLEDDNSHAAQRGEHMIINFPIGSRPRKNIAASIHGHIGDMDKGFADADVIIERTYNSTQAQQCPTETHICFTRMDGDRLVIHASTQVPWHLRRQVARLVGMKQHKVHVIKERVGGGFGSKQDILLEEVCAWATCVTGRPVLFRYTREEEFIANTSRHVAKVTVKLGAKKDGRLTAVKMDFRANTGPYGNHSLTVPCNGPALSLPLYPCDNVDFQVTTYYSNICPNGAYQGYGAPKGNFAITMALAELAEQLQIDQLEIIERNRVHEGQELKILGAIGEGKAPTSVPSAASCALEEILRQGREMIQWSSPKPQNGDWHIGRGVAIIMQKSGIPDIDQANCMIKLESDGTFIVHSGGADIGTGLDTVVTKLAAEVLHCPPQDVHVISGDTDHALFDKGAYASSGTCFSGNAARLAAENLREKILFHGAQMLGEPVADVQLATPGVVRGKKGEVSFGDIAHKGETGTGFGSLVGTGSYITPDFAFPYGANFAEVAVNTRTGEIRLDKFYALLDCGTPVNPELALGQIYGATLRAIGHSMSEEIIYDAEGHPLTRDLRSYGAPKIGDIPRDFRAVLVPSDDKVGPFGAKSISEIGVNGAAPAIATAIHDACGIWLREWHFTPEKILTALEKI
UniProt P77375: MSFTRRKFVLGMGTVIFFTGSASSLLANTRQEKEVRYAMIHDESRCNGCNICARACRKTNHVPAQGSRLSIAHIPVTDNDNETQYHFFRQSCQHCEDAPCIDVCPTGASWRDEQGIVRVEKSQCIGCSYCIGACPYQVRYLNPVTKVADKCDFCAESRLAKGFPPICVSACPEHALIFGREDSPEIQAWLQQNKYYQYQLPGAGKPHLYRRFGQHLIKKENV
UniProt Q47536: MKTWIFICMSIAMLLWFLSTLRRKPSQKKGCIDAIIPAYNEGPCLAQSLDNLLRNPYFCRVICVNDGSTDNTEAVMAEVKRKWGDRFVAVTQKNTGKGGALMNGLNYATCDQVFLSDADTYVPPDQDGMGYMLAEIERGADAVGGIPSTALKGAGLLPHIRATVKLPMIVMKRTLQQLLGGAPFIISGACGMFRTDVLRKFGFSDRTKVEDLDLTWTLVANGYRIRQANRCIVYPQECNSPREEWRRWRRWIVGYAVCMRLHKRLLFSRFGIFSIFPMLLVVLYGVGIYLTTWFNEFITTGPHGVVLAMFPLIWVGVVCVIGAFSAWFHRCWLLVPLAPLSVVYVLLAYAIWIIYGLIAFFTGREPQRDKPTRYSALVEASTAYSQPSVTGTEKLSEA
UniProt P77409: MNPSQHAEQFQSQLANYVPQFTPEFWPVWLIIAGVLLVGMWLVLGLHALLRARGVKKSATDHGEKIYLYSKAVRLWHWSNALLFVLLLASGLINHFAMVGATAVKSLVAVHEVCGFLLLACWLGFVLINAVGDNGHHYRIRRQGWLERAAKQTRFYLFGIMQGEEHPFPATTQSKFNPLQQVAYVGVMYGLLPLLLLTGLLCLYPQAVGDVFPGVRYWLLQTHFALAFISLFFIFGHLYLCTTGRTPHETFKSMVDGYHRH
UniProt Q46911: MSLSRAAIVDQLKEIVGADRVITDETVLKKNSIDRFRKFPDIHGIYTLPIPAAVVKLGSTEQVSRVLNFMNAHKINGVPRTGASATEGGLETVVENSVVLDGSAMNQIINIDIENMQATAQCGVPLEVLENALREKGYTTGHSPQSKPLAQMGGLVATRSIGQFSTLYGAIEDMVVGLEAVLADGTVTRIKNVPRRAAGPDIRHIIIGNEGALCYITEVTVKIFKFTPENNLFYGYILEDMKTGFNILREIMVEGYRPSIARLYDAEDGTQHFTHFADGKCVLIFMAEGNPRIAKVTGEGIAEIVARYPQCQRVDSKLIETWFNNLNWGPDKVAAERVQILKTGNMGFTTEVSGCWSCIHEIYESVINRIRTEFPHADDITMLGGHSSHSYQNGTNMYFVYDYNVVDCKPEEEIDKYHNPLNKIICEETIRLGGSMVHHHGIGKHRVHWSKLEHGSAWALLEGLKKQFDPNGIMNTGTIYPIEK
UniProt P77319: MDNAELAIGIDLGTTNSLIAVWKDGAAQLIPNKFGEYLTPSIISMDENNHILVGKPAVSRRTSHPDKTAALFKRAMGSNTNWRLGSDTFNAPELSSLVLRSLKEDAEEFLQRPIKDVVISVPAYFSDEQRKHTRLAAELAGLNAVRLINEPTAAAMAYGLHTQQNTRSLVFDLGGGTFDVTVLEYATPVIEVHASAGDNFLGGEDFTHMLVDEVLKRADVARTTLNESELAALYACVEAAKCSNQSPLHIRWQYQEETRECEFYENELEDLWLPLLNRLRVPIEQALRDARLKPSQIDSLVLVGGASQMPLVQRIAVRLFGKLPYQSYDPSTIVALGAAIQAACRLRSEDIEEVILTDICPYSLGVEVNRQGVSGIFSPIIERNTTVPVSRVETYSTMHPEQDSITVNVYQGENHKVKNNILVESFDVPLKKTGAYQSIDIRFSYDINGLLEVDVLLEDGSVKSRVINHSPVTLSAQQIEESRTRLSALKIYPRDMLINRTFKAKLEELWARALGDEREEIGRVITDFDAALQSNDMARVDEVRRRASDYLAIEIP
UniProt P77330: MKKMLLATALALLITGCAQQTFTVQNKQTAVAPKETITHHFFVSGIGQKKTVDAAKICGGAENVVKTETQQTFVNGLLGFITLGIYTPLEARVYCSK

Row | Target | log2 fold change
1 | UniProt P77357 (peptide sequence: VNVGVMQAGSGR, peptide start residue: 276) | 0.238
2 | UniProt P77713 (peptide sequence: NWSLVSTPLDR, peptide start residue: 47) | 0.35
3 | UniProt Q46888 (peptide sequence: DLGLVADTAK, peptide start residue: 247) | -0.525
4 | UniProt Q46864 (peptide sequence: VLDKHPELLNEIR, peptide start residue: 119) | 0.262
5 | UniProt P77526 (peptide sequence: SRPATGQALLK, peptide start residue: 195) | 1.1
6 | UniProt P77445 (peptide sequence: LEGGCHHTAAMHSR, peptide start residue: 386) | 0.564
7 | UniProt Q46904 (peptide sequence: VPASELLTR, peptide start residue: 243) | -0.232
8 | UniProt P77561 (peptide sequence: KIESYQGAAGGWGAVK, peptide start residue: 4) | 0.162
9 | UniProt P77596 (peptide sequence: FANHELSLQEAAELGCR, peptide start residue: 208) | 0.278
10 | UniProt P77529 (peptide sequence: SSAASIPLNVEAQTRR, peptide start residue: 308) | -0.364
11 | UniProt Q46896 (peptide sequence: LALDEDLR, peptide start residue: 105) | -0.321
12 | UniProt P77569 (peptide sequence: SPSDDSFR, peptide start residue: 64) | -0.673
13 | UniProt P77454 (peptide sequence: QLGYNVFKG, peptide start residue: 302) | 0.159
14 | UniProt P77726 (peptide sequence: LLETEGIKEVLIAEEEHSAYVK, peptide start residue: 415) | -0.263
15 | UniProt Q46835 (peptide sequence: QAQNISQNLPIK, peptide start residue: 39) | -0.18
16 | UniProt Q46798 (peptide sequence: RGDTLYR, peptide start residue: 46) | 0.0741
17 | UniProt P77732 (peptide sequence: LVELSGHALSK, peptide start residue: 69) | 0.654
18 | UniProt Q46866 (peptide sequence: KAPILFHYTNLAEGVTEQR, peptide start residue: 132) | 0.704
19 | UniProt Q46810 (peptide sequence: IILVTGYRGNELHER, peptide start residue: 46) | -0.459
20 | UniProt P77609 (peptide sequence: KNEDATVQPDKK, peptide start residue: 82) | -0.259

Shown comma-delimited: part of the list above.
Row,Target,log2 fold change
1,"UniProt P77357 (peptide sequence: VNVGVMQAGSGR, peptide start residue: 276)",0.238
13,"UniProt P77454 (peptide sequence: QLGYNVFKG, peptide start residue: 302)",0.159

The listing continues.

Row | Target | log2 fold change
21 | UniProt Q2M7X4 (peptide sequence: EAIVAMER, peptide start residue: 72) | 0.139
22 | UniProt P77626 (peptide sequence: AMLGQIER, peptide start residue: 35) | 0.311
23 | UniProt Q46865 (peptide sequence: KLVNAGQVR, peptide start residue: 15) | 0.184
24 | UniProt Q46814 (peptide sequence: PCYVEDR, peptide start residue: 189) | -0.72
25 | UniProt P77559 (peptide sequence: QILSMVDDAAAR, peptide start residue: 72) | -0.0982
26 | UniProt P77375 (peptide sequence: CDFCAESR, peptide start residue: 151) | -0.331
27 | UniProt P77260 (peptide sequence: TATGVIVEALAR, peptide start residue: 157) | -0.67
28 | UniProt Q46948 (peptide sequence: DSTLLVETVK, peptide start residue: 84) | -0.416
29 | UniProt P77434 (peptide sequence: SYNMAGWR, peptide start residue: 245) | 0.387
30 | UniProt Q47536 (peptide sequence: WGDRFVAVTQK, peptide start residue: 83) | 0.308
31 | UniProt P77409 (peptide sequence: SMVDGYHRH, peptide start residue: 253) | -0.566
32 | UniProt Q46911 (peptide sequence: EIMVEGYRPSIAR, peptide start residue: 250) | -0.329
33 | UniProt Q46811 (peptide sequence: WHKPAGSGSR, peptide start residue: 541) | 0.435
34 | UniProt P77743 (peptide sequence: TAAANYLGISR, peptide start residue: 509) | 0.783
35 | UniProt P77319 (peptide sequence: LAAELAGLNAVR, peptide start residue: 135) | -0.47
36 | UniProt Q46905 (peptide sequence: VADAPHIVPADSVER, peptide start residue: 10) | 0.402
37 | UniProt P77330 (peptide sequence: ICGGAENVVK, peptide start residue: 57) | 0.422
38 | UniProt Q46908 (peptide sequence: GATLIDGQTVAEK, peptide start residue: 232) | -0.499
39 | UniProt P77624 (peptide sequence: RIVEAPAIK, peptide start residue: 172) | 0.517
40 | UniProt P77333 (peptide sequence: ITTVEHAAK, peptide start residue: 98) | -0.259
